Data published in the supplement of paper PMC3334620.
The full ranking holds about 33,000 sequences; the median of “E-score (-0.5 to 0.5)” is about -0.0059, and the highest 2% start at about 0.26. The list shows a part of the results.

Target: T1, Cin5 (UniProt P40917)
T1 sequence: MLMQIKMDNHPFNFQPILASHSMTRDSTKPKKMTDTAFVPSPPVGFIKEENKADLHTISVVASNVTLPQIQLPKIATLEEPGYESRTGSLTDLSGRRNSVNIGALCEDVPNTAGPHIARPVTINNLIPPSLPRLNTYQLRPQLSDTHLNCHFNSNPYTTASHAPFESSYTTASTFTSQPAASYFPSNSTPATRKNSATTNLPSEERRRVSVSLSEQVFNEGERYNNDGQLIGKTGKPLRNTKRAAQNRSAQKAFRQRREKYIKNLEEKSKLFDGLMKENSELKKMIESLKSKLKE
Assay: PBM E-score (8-mer binding enrichment) (E-score (-0.5 to 0.5)); higher = stronger / more preferred TF binding
Conditions: protein concentration: 100 nM; construct: GST-full length
Procedure, shortened: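 PURExpress in vitro transcription/translation supplied GST-tagged yeast transcription factors, either full-length or DNA-binding domain. Applied at about 100-200 nM to universal all-10-mer Agilent arrays double-stranded by primer extension, the bound protein was detected with fluorescent anti-GST. E-scores, modified Wilcoxon-Mann-Whitney statistics, were given by the Universal PBM Analysis Suite to ungapped eight-base words pooled with their reverse complements after masliner normalisation.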

Row | Sequence | PBM E-score
1 | CGGCAGTA | -0.0949
2 | ACAGCGAC | -0.204
3 | ACTTAAAA | -0.0447
4 | ATGCGCGC | 0.193
5 | GTTATCGA | 0.0833
6 | ACGGTTGC | -0.163
7 | AAGGGGCC | -0.118
8 | CTGGCCAA | -0.0305
9 | CGGCTATC | -0.147
10 | CCCATAGG | -0.115
11 | CACATTCC | 0.00691
12 | GTATCAAA | 0.138
13 | CCTTGGCA | -0.245
14 | AAGCCCTA | -0.147
15 | CTTAACAC | 0.152
16 | CCCTGCAA | -0.132
17 | ACGGGAGT | 0.0416
18 | AGTTATTG | 0.184
19 | CACCTCGC | 0.0546
20 | CAAGCGTA | -0.111
21 | AACTATTC | 0.0254
22 | TGTGGAAA | 0.153
23 | ATCTTTTC | 0.119
24 | ACTCCACC | -0.0503
25 | GGTGGTCA | -0.0303

An excerpt from the list above, as a working copy:
Row | Sequence | PBM E-score
7 | AAGGGGCC | -0.118
8 | CTGGCCAA | -0.0305
9 | CGGCTATC | -0.147
10 | CCCATAGG | -0.115

Additional entries

Row | Sequence | PBM E-score
26 | AGGCAGAG | -0.132
27 | ATTCCCGC | 0.165
28 | CCCGCTGA | 0.044
29 | CCCTATTC | 0.0305
30 | AGGAGCCG | -0.317
31 | AGAGAACA | 0.118
32 | ACATAGCC | 0.191
33 | AGCCGACC | -0.252
34 | CATTAGCC | 0.0429
35 | CCACTGAA | 0.121
36 | CGTTGAAA | -0.0492
37 | GCGTAAAA | 0.121
38 | ATGCGATG | -0.0493
39 | GCTCTCTA | -0.158
40 | ACGAGATG | 0.0151
41 | TCACCAAA | 0.177
42 | CTTTTAGC | -0.0723
43 | GGATGATA | 0.176
44 | AACTCTAA | 0.0833
45 | CTGGCCAG | -0.0982
46 | CTCTAAAC | 0.0208
47 | GCGAGCAA | 0.0907
48 | CGCAAATC | 0.0229
49 | CGACTGTC | -0.116
50 | CGCCGCAC | -0.168

Row | Sequence | PBM E-score
51 | AAGCCTGT | 0.053
52 | CTGCCACA | -0.139
53 | CGCGCCCG | -0.196
54 | ACGCTCAA | 0.0916
55 | AGCACAAG | -0.189
56 | AGATCCGA | -0.0473
57 | ATTTCCGC | 0.162
58 | CGAGAGCA | 0.0311
59 | AGACCGGA | -0.18
60 | ATCCCCTA | 0.0975
61 | AATTTCCC | 0.108
62 | CTTGAAAA | 0.0761
63 | AACCGGTC | -0.0963
64 | CAGGCTAA | -0.0999
65 | CGAAAACA | 0.0113
66 | GTTACCTA | 0.131
67 | TGCATACA | 0.212
68 | CGGTACTA | -0.148
69 | GTAGTCTA | -0.0101
70 | CTACTAAG | 0.144
71 | TAAATTGA | 0.198
72 | ATCCCGAA | 0.215
73 | AATGTTCT | -0.0398
74 | AGAGCATG | -0.157
75 | AGTAAACT | 0.174

Row | Sequence | PBM E-score
76 | AAATAGGT | 0.0939
77 | AGCGCGTA | 0.169
78 | GCGGACGA | -0.0492
79 | ACCTGAAG | -0.0798
80 | AAGTCATG | 0.148
81 | AAATGAGA | 0.128
82 | CACTGAGA | -0.149
83 | ACACATTC | 0.0349
84 | CGGCAGAG | -0.302
85 | AATCGTTG | 0.178
86 | AGAGGGAA | -0.327
87 | CCGCAACC | 0.00116
88 | AACCGGGT | -0.0685
89 | ACACAGAA | 0.0946
90 | CAGGTCAG | 0.0249
91 | GCAGGTCA | -0.0653
92 | AAGCAGCC | 0.0577
93 | GGAAACGA | 0.0835
94 | AATGCCAT | 0.142
95 | AACCGGTT | 0.105
96 | TCCGCCGA | -0.0241
97 | AGAATTAA | -0.0547
98 | ACGCTCTC | -0.12
99 | TCATATGA | 0.272
100 | GGTATCTA | 0.0109

Row | Sequence | PBM E-score
101 | CTAACGTA | 0.169
102 | GTAATTAA | 0.13
103 | AGAGTGAC | -0.142
104 | CGTTGAGA | 0.0252
105 | AGGCTTTC | 0.0432
106 | ACAACTTG | 0.0528
107 | ACTATTGG | -0.0556
108 | CTATGTCA | -0.053
109 | CCTAATGA | -0.00784
110 | ACCCTTGC | -0.17
111 | ACACCACA | 0.0779
112 | ACGGCAAC | -0.0668
113 | GATTATGC | 0.172
114 | GATATAAA | 0.0539
115 | CCCGAGCG | -0.0798
116 | AAGAACCT | -0.00163
117 | ATGGAATG | 0.0923
118 | AACGCACC | -0.0357
119 | ACTGTATC | -0.119
120 | ATCTTCGC | 0.0925
121 | AAAAGGGG | -0.269
122 | GGAAATAA | 0.24
123 | ATACAGTC | -0.142
124 | CGCCATCA | -0.202
125 | GGGGTGTA | -0.208

Row | Sequence | PBM E-score
126 | CGGGTTAA | 0.0216
127 | CATGACGG | 0.0087
128 | AGCACCTA | -0.147
129 | CATTACAG | 0.074
130 | AGGCATAG | -0.135
131 | CCCCGGCA | -0.118
132 | ATAGGTGC | 0.0881
133 | TCGTAGAA | -0.0789
134 | CGAGATAA | 0.255
135 | ATAGCGTG | 0.00691
136 | ATTGATTC | 0.128
137 | ACACATGA | 0.0642
138 | ACCGTCTG | -0.246
139 | TCAACTGA | 0.0795
140 | AAATGGTG | 0.0995
141 | AGGATAGC | -0.064
142 | AACAGAAC | 0.0567
143 | AGGCTCTG | -0.194
144 | TAGAAGGA | -0.321
145 | CACCTTAC | 0.035
146 | CCGGGCCG | -0.221
147 | TATCCAGA | -0.0243
148 | ATGGGTGA | -0.0864
149 | CCGACACG | -0.177
150 | CTCTCTAC | 0.0268

Laid out differently: entries from further up.
Row	Sequence	PBM E-score
101	CTAACGTA	0.169
102	GTAATTAA	0.13
104	CGTTGAGA	0.0252
105	AGGCTTTC	0.0432
106	ACAACTTG	0.0528
107	ACTATTGG	-0.0556
108	CTATGTCA	-0.053
109	CCTAATGA	-0.00784
110	ACCCTTGC	-0.17
111	ACACCACA	0.0779
112	ACGGCAAC	-0.0668
113	GATTATGC	0.172
114	GATATAAA	0.0539
115	CCCGAGCG	-0.0798
116	AAGAACCT	-0.00163
117	ATGGAATG	0.0923
118	AACGCACC	-0.0357
119	ACTGTATC	-0.119
120	ATCTTCGC	0.0925
121	AAAAGGGG	-0.269
122	GGAAATAA	0.24
123	ATACAGTC	-0.142
124	CGCCATCA	-0.202
125	GGGGTGTA	-0.208
126	CGGGTTAA	0.0216
127	CATGACGG	0.0087
128	AGCACCTA	-0.147
129	CATTACAG	0.074
130	AGGCATAG	-0.135
131	CCCCGGCA	-0.118
132	ATAGGTGC	0.0881
133	TCGTAGAA	-0.0789
134	CGAGATAA	0.255
135	ATAGCGTG	0.00691
137	ACACATGA	0.0642
138	ACCGTCTG	-0.246
139	TCAACTGA	0.0795
140	AAATGGTG	0.0995
141	AGGATAGC	-0.064
143	AGGCTCTG	-0.194
144	TAGAAGGA	-0.321
145	CACCTTAC	0.035
146	CCGGGCCG	-0.221
147	TATCCAGA	-0.0243
148	ATGGGTGA	-0.0864
149	CCGACACG	-0.177
150	CTCTCTAC	0.0268

Next part

Row | Sequence | PBM E-score
151 | GGGCACCA | -0.267
152 | CGGTCGCA | -0.24
153 | GTTCCACA | -0.0911
154 | CACGCCGA | 0.00016
155 | ATACGTAA | 0.386
156 | CCAACCAG | -0.184
157 | CGCAGGCA | -0.149
158 | CAAATGGG | 0.0286
159 | GGAGCCAC | -0.201
160 | ACTATTAT | 0.137
161 | CCGCTGCG | -0.073
162 | ACTGGTTC | -0.0164
163 | ATCGAGCA | 0.0127
164 | ATGGTCTC | -0.00291
165 | AATAGATA | 0.269
166 | GTCACGTA | -0.124
167 | CTCGCGAG | 0.0707
168 | AATGTTGT | 0.124
169 | CGTCACGA | -0.0379
170 | CTCTCCCC | -0.26
171 | CGGCTACA | -0.132
172 | GCTTTTCA | -0.00236
173 | AGGCACTC | -0.2
174 | AATCCGGG | 0.0445
175 | ACCCTGTC | -0.154

Row | Sequence | PBM E-score
176 | AGTAAGTA | 0.227
177 | CGGTCCCA | -0.214
178 | CCGGCGAA | 0.123
179 | AATGTAAT | 0.301
180 | AGAACGCC | -0.116
181 | CCGCGTCC | -0.014
182 | GATTAACC | -0.142
183 | AATGCAAA | 0.275
184 | GGCATGAA | -0.00857
185 | ACACCCTG | -0.142
186 | AATTCTCG | 0.1
187 | CCCCCGTC | -0.435
188 | GGACGTCA | 0.0529
189 | GGCATCTA | -0.0103
190 | ATTCTTAG | -0.0605
191 | ACAAACTA | 0.141
192 | GCTACTCC | -0.0765
193 | CTGTAAAA | -0.0113
194 | ACAGTATA | 0.17
195 | GATCTGGA | -0.125
196 | AGCTCGAT | 0.116
197 | GAAGCTAA | -0.0121
198 | GCTATCAA | 0.0779
199 | AGGTTATG | 0.154
200 | AACAAATC | 0.161

Row | Sequence | PBM E-score
201 | TGTCTCAA | -0.033
202 | GTCTACCA | -0.154
203 | CGCGCGTA | 0.0312
204 | CGGCGAAG | -0.133
205 | GTATTGAA | 0.222
206 | AGTTCTCA | 0.0601
207 | TATACCAA | 0.11
208 | AAAAAATA | 0.213
209 | TCTGGCAA | -0.0729
210 | CGGGGCAC | -0.242
211 | CCGGAATC | 0.155
212 | CTACGGCC | -0.214
213 | CGTTCCCC | -0.112
214 | TGAATGCA | 0.0583
215 | GGTAACGA | 0.114
216 | ACGTATGA | 0.162
217 | ACGATTTA | 0.244
218 | GGAATCCA | 0.0132
219 | AATATCAT | 0.241
